Values of other authors in patent publication US20090028873A1, “SUBSTITUTED CYCLOHEXANOLS” (AUSPEX PHARMACEUTICALS, INC., priority 2007, published 2009).

Tested on: norepinephrine uptake
Settings: result in words; cited from earlier work

COc1cccc(C2(O)CCCCC2CN(C)C)c1 (single isomer, unassigned; (-)) [(−)-tramadol]
inhibitor of norepinephrine uptake: most potent inhibitor
